{"source": "PubChem BioAssay AID743454 (Peter MacCallum Cancer Centre, 2014)", "purpose": "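Knock-downs lowering viability or raising caspase 3/7 activity in vorinostat-treated resistant cells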 (primary screen)", "cells": "human HCT116-VR colon cancer cells, selected for vorinostat resistance", "reagents": "siRNA pool against human genes, 40 nM siRNA pool", "time to read-out": "vorinostat for 24 h, read-out about 72 h after transfection", "challenge": "vorinostat at 2.5 µM final", "measured": "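Cell viability by CellTiter-Fluor and caspase 3/7 activity by luminescence, each scaled to mock wells per plate, duplicates averaged, then robust z-scored over all plates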", "direction": "viability robust z-score: higher = more viable cells than screen typical; caspase robust z-score: higher = more caspase 3/7 activity than screen typical", "active means": "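Hits are knock-downs in viability class RV1/RV2 or caspase class CA1/CA2, excluding ones that killed cells in the no-drug cell-count arm; hits then retested with single siRNAs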", "note": "In all, the deposit lists about 18,000 reagents; shown is a random part of them. 450 of all reagents (2.5%) were called active. 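Single biological run; no consistent viability z cut-off exists, so the class columns, not z-scores, define the calls.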 Unmarked entries are inactive."}
{"Gene": "GTPBP4", "viability hit class": "no change", "caspase hit class": "no change", "viability robust z-score": -1.81, "caspase robust z-score": -0.78}
{"Gene": "STRIP2", "viability hit class": "no change", "caspase hit class": "no change", "viability robust z-score": 0.76, "caspase robust z-score": 1.82}
{"Gene": "RAB40A", "viability hit class": "no change", "caspase hit class": "no change", "viability robust z-score": -0.46, "caspase robust z-score": 0.4}
{"Gene": "VDR", "viability hit class": "no change", "caspase hit class": "no change", "viability robust z-score": 0.26, "caspase robust z-score": 2.26}
{"Gene": "NAT8B", "viability hit class": "RV2 (reduced viability) (active)", "caspase hit class": "no change", "viability robust z-score": -2.96, "caspase robust z-score": 3.35}
{"Gene": "FAM234B", "viability hit class": "no change", "caspase hit class": "no change", "viability robust z-score": -0.12, "caspase robust z-score": -0.6}
{"Gene": "VOPP1", "viability hit class": "no change", "caspase hit class": "no change", "viability robust z-score": 1.11, "caspase robust z-score": 1.34}
{"Gene": "ZNF20", "viability hit class": "no change", "caspase hit class": "no change", "viability robust z-score": -0.44, "caspase robust z-score": -0.68}
{"Gene": "DLL3", "viability hit class": "no change", "caspase hit class": "no change", "viability robust z-score": -1.1, "caspase robust z-score": 0.24}
{"Gene": "MRPL12", "viability hit class": "no change", "caspase hit class": "no change", "viability robust z-score": -0.7, "caspase robust z-score": 0.36}
{"Gene": "LIMD1", "viability hit class": "no change", "caspase hit class": "no change", "viability robust z-score": -0.51, "caspase robust z-score": 2.5}
{"Gene": "IL1R1", "viability hit class": "no change", "caspase hit class": "no change", "viability robust z-score": -0.64, "caspase robust z-score": -0.58}
{"Gene": "SYT8", "viability hit class": "no change (active)", "caspase hit class": "CA1 (caspase activation)", "viability robust z-score": 0.13, "caspase robust z-score": 5.27}
{"Gene": "MCRIP1", "viability hit class": "no change", "caspase hit class": "no change", "viability robust z-score": -0.74, "caspase robust z-score": -0.92}
{"Gene": "ITGAL", "viability hit class": "no change", "caspase hit class": "no change", "viability robust z-score": 0.49, "caspase robust z-score": 1.84}
{"Gene": "CACNB1", "viability hit class": "no change", "caspase hit class": "no change", "viability robust z-score": -0.49, "caspase robust z-score": 0.04}
{"Gene": "FOXM1", "viability hit class": "no change", "caspase hit class": "no change", "viability robust z-score": 0.62, "caspase robust z-score": 0.01}
{"Gene": "FCGR2B", "viability hit class": "no change", "caspase hit class": "no change", "viability robust z-score": -2.62, "caspase robust z-score": -1.02}
{"Gene": "NEURL4", "viability hit class": "no change", "caspase hit class": "no change", "viability robust z-score": 0.84, "caspase robust z-score": 0.5}
{"Gene": "HNRNPF", "viability hit class": "no change", "caspase hit class": "no change", "viability robust z-score": -0.22, "caspase robust z-score": -0.25}
{"Gene": "MDH2", "viability hit class": "no change", "caspase hit class": "no change", "viability robust z-score": 1.27, "caspase robust z-score": -0.12}

Reformatted: 3 of the entries above.
SYT8
- viability hit class: no change (active)
- caspase hit class: CA1 (caspase activation)
- viability robust z-score: 0.13
- caspase robust z-score: 5.27

MCRIP1
- viability hit class: no change
- caspase hit class: no change
- viability robust z-score: -0.74
- caspase robust z-score: -0.92

ITGAL
- viability hit class: no change
- caspase hit class: no change
- viability robust z-score: 0.49
- caspase robust z-score: 1.84
